Our source for the binding values is article PMC3610028.

Amino acid sequences for entries named in this document (tags omitted). A change or cut given only in a name is not applied to a line headed by its entry.
UniProt Q9Q0L6: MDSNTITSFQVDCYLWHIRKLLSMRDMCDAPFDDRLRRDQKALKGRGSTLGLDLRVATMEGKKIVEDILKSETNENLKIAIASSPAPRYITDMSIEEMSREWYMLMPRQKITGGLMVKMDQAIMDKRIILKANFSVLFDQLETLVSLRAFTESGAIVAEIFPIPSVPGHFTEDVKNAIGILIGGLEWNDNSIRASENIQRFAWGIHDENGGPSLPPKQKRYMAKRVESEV

Results are given in words; binding and its absence hold for the method and conditions named. In cells and extracts the contact can be indirect. Some results given as binding are weak or reduced against the parent protein; the word gives no strength. Sequences can lack the tags named with a protein.

This test has as its target T1, Flag-NOLC1 fusion protein (nucleolar and coiled-body phosphoprotein 1) (human) (UniProt Q14978).
T1 sequence: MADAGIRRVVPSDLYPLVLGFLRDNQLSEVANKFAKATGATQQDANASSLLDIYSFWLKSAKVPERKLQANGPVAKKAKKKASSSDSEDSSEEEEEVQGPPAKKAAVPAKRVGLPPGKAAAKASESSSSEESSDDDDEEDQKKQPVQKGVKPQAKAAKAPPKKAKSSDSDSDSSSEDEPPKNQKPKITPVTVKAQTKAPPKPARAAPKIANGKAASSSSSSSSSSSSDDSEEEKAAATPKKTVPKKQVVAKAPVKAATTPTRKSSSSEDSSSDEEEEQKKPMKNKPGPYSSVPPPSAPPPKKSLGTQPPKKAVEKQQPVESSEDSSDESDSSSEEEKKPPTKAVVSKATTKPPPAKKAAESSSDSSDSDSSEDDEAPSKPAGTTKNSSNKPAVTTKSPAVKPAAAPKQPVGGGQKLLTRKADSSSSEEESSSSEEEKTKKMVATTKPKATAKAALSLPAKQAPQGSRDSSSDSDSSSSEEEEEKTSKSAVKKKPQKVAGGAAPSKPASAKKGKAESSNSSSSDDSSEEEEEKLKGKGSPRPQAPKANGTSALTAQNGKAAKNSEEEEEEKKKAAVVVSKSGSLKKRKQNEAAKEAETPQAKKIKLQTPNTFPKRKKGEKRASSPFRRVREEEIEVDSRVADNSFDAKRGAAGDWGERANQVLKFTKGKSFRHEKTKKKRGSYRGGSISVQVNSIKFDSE
As to the kind of experiment: co-IP.

On to “EGFP-NS1 fusion protein (pEGFP-N1-NS1) (from UniProt Q9Q0L6 1-230)”, for which the binding result was “binds”.

With “NS1-ED (74-230 aa), C-terminal effector domain of NS1, EGFP fusion (pEGFP-N1-NS1-ED) (from UniProt Q9Q0L6 74-230) (domain or fragment)”, the binding result is recorded as “binds”.
